Article PMC11463362
These are yes or no findings as the source states them, for the method shown. In cells and extracts the contact can be indirect. These calls come from enrichment with a bait or labelling near it, and not all partners need be listed.

Chains of the proteins cited; added tags and fusions are not shown.
UniProt Q6BDS2: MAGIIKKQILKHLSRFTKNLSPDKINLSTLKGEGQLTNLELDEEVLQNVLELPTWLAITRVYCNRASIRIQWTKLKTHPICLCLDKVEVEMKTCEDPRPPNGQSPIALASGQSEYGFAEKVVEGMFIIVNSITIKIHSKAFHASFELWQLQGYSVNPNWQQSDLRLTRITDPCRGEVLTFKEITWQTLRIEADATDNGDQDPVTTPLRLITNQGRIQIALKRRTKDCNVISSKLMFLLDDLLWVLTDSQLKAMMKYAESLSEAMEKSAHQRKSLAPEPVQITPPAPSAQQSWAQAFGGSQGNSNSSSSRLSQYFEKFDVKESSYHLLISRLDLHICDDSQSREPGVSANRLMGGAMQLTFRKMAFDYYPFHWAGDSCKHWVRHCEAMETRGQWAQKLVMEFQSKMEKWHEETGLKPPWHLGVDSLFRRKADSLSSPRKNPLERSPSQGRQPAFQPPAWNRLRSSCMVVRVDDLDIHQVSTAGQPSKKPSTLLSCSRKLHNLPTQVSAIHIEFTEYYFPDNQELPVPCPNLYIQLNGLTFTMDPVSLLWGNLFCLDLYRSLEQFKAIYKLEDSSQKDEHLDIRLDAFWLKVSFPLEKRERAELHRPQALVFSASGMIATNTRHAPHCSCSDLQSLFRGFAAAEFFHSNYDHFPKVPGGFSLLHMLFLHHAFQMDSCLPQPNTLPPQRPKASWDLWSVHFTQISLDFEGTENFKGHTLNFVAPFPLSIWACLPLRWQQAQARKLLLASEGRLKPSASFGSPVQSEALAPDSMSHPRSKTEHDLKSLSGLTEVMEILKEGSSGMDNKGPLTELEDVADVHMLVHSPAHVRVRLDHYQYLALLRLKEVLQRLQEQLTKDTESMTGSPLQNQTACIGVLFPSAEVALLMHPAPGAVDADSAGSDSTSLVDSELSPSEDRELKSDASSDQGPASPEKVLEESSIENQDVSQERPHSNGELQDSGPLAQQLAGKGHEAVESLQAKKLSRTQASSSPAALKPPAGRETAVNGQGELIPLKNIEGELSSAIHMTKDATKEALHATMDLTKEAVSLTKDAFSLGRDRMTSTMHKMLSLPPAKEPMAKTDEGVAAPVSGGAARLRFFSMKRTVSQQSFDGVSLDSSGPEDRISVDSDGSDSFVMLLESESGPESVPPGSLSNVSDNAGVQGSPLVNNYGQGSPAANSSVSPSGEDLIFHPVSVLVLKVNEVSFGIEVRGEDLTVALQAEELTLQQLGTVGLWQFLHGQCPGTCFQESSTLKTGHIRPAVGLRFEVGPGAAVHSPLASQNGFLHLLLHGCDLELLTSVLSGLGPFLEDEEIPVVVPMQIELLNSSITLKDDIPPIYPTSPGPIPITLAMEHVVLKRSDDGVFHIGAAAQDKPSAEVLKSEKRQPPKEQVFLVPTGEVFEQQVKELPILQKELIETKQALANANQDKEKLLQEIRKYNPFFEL
UniProt O95166: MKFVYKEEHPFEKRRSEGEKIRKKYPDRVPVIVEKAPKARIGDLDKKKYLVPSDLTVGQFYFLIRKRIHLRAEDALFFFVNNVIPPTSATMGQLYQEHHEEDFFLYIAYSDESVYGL

Biological target: bridge-like lipid transfer protein 3A (BLTP3A), endogenously tagged with V5 (BLTP3A^V5) (human (endogenous in A549)) (UniProt Q6BDS2)
Test: affinity purification with mass spectrometry; anti-V5 magnetic resin (ChromoTek) on lysate of A549 cells with endogenously V5-tagged BLTP3A; 50 mM Tris pH 7.6, 150 mM NaCl, 1% Triton X-100, 4°C, 2 hrs; unedited A549 cells as control; n=3

Molecule | binding
GABARAP (from UniProt O95166 1-117) | binds
Rab27B (protein, UniProt O00194 1-218) MTDGDYDYLIKLLALGDSGVGKTTFLYRYTDNKFNPKFITTVGIDFREKRVVYNAQGPNGSSGKAFKVHLQLWDTAGQERFRSLTTAFFRDAMGFLLMFDLTSQQSFLNVRNWMSQLQANAYCENPDIVLIGNKADLPDQREVNERQARELADKYGIPYFETSAATGQNVEKAVETLLDLIMKRMEQCVEKTQIPDTVNGGNSGNLDGEKPPEKKCIC | binds
melanophilin (MLPH) (protein, UniProt Q9BV36 1-600) MGKKLDLSKLTDEEAQHVLEVVQRDFDLRRKEEERLEALKGKIKKESSKRELLSDTAHLNETHCARCLQPYQLLVNSKRQCLECGLFTCKSCGRVHPEEQGWICDPCHLARVVKIGSLEWYYEHVKARFKRFGSAKVIRSLHGRLQGGAGPELISEERSGDSDQTDEDGEPGSEAQAQAQPFGSKKKRLLSVHDFDFEGDSDDSTQPQGHSLHLSSVPEARDSPQSLTDESCSEKAAPHKAEGLEEADTGASGCHSHPEEQPTSISPSRHGALAELCPPGGSHRMALGTAAALGSNVIRNEQLPLQYLADVDTSDEESIRAHVMASHHSKRRGRASSESQIFELNKHISAVECLLTYLENTVVPPLAKGLGAGVRTEADVEEEALRRKLEELTSNVSDQETSSEEEEAKDEKAEPNRDKSVGPLPQADPEVGTAAHQTNRQEKSPQDPGDPVQYNRTTDEELSELEDRVAVTASEVQQAESEVSDIESRIAALRAAGLTVKPSGKPRRKSNLPIFLPRVAGKLGKRPEDPNADPSSEAKAMAVPYLLRRKFSNSLKSQGKDDDSFDRKSVYRGSLTQRNPNARKGMASHTFAKPVVAHQS | binds
